From paper PMC5642575
Results are given in words; binding and its absence hold for the method and conditions named. In cells and extracts the contact can be indirect. Some results given as binding are weak or reduced against the parent protein; the word gives no strength. For some of these results: Sequences can lack the tags named with a protein. Blank lines part the entries; values can stand above or below the substance they belong to.

Protein sequences, listed by entry. Tags and fused reporters are not part of them.
UniProt P35222: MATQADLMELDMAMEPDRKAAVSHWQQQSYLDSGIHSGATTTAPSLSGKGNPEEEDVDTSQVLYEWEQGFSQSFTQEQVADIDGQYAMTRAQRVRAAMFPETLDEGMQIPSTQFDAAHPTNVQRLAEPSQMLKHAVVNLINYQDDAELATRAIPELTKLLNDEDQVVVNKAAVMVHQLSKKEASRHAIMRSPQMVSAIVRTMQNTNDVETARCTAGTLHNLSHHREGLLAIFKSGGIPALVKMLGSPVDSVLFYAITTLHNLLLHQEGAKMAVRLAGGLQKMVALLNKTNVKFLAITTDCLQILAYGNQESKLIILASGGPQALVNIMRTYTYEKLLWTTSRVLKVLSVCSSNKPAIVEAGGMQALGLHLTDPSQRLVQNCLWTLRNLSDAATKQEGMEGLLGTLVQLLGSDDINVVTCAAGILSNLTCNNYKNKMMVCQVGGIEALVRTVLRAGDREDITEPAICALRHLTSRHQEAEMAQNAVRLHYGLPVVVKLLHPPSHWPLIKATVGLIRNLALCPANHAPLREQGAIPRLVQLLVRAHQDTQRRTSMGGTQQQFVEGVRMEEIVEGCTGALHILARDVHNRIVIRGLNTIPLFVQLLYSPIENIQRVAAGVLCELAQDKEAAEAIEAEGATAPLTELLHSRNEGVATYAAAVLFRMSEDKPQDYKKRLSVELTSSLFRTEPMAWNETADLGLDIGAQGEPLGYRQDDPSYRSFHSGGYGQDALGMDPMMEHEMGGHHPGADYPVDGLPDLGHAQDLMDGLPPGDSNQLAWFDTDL

Legend:
[1] = biological target: T1, c-terminus of TFCP2 (254-503aa), myc-tagged (UniProt Q12800); assay: co-IP; different TFCP2 plasmids transfected into 293T cells; 48 hours later immunoprecipitation with anti-myc antibody
T1 sequence: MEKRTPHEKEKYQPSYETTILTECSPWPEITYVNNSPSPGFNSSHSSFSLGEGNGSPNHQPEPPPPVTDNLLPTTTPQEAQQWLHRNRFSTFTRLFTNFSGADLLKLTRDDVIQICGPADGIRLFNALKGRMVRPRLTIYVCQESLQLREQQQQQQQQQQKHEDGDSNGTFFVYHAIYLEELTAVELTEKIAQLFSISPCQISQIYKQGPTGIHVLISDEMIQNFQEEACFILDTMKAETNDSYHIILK

[2] = biological target: T2, myc-TFCP2 (UniProt Q12800); assay: co-IP; ectopically expressed myc-TFCP2 and Flag-beta-catenin in HPAC cells; immunoprecipitation
T2 sequence: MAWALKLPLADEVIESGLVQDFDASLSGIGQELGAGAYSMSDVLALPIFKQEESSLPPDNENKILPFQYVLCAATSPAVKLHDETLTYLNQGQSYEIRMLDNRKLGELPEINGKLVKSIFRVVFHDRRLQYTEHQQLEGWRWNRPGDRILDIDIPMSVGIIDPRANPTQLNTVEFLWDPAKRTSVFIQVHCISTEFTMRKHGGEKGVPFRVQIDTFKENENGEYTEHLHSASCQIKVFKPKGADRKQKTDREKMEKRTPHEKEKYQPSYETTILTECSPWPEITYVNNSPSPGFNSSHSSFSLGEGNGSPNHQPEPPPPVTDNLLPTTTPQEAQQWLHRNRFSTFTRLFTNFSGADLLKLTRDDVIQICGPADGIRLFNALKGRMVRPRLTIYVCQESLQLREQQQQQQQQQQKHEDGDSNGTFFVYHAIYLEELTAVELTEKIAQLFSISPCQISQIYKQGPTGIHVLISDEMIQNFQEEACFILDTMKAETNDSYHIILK

[3] = biological target: T3, GST-TFCP2 fusion protein (UniProt Q12800); assay: pull-down; 5 ug GST-TFCP2 fusion protein with 500 ug HPAC whole cell lysate (50 mM Tris-Cl pH 7.5, 150 mM NaCl, 0.1% NP40), 4 C over night; captured on glutathione-Sepharose-4B beads; washed three times with lysis buffer; only the target purified
T3 sequence: T2 sequence

[4] = biological target: T4, TFCP2 (endogenous) (human (endogenous in HPAC and CFPAC)) (UniProt Q12800); assay: co-IP; endogenous proteins in HPAC and CFPAC cells; immunoprecipitation
T4 sequence: T2 sequence

binding [1]: binds
Substance: beta-catenin (in 293T cells, Figure 5E) (from UniProt P35222 1-781)

binding [2]: binds
Substance: Flag-beta-catenin (from UniProt P35222 1-781)

binding [3]: binds | binding [4]: binds
Substance: beta-catenin (endogenous) (from UniProt P35222 1-781)
